These are yes or no findings as the source states them, for the method shown. In cells and extracts the contact can be indirect. Here binding means that the protein was enriched with, or labelled near, the bait; the list need not be complete.

Sequences of proteins named here, by UniProt entry; tags and fusion partners are left off.
UniProt O43791: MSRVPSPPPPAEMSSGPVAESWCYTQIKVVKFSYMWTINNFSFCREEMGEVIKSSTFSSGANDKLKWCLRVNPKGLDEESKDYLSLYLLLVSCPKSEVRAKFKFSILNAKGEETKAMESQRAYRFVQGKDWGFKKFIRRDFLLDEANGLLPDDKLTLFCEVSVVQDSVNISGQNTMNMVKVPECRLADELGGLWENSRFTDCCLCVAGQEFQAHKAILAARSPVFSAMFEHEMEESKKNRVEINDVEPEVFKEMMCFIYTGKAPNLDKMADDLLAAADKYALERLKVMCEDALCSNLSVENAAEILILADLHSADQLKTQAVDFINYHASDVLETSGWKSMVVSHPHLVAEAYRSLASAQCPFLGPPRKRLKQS
UniProt Q7Z5L9: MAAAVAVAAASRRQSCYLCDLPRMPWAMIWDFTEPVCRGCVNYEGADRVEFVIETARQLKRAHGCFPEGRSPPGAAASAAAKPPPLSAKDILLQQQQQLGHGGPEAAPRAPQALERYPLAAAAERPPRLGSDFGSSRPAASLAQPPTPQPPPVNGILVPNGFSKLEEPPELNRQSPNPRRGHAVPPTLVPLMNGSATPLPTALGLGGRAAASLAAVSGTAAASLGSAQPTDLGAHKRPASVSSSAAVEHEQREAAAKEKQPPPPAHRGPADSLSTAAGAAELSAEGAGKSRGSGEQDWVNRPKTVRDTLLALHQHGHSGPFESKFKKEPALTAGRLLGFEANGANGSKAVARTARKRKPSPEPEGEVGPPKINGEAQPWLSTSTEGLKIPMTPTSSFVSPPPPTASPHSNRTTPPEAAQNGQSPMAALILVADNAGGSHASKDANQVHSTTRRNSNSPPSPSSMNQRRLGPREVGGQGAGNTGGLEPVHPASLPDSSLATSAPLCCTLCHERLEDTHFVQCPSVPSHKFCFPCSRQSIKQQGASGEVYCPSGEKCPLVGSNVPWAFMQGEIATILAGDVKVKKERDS

The target in the test is SPOP (bait of the immunoprecipitation with mass spectrometry) (UniProt O43791). The test can be described thus: affinity purification with mass spectrometry; immunoprecipitation with SPOP as bait, then mass spectrometry; cells and construct not told.

Take “IRF2BP2 (candidate found by mass spectrometry) (from UniProt Q7Z5L9 1-587)”: the binding result is reported as “binds”.

(Values after publication PMC10897488.)
